No constants are given. Whether binding was seen depends on the method and setting.
Key:
[1] = target: purified recombinant YspE1, full length (Yersinia pestis); assay: SPR; Biacore T200; […] (0–20 μM) […] (20 mM HEPES pH 7.4, 150 mM NaCl, 3.4 mM EDTA, 0.005% P20); 25 °C; both purified
[2] = target: purified recombinant YspE2, full length (Yersinia pestis); assay: as above

B1: human guanylate-binding protein 4 (hGBP4) used in SPR (protein, UniProt Q96PP9 1-640)
chain: MGERTLHAAVPTPGYPESESIMMAPICLVENQEEQLTVNSKALEILDKISQPVVVVAIVGLYRTGKSYLMNRLAGKRNGFPLGSTVQSETKGIWMWCVPHLSKPNHTLVLLDTEGLGDVEKSNPKNDSWIFALAVLLSSSFVYNSVSTINHQALEQLHYVTELAELIRAKSCPRPDEAEDSSEFASFFPDFIWTVRDFTLELKLDGNPITEDEYLENALKLIPGKNPKIQNSNMPRECIRHFFRKRKCFVFDRPTNDKQYLNHMDEVPEENLERHFLMQSDNFCSYIFTHAKTKTLREGIIVTGKRLGTLVVTYVDAINSGAVPCLENAVTALAQLENPAAVQRAADHYSQQMAQQLRLPTDTLQELLDVHAACEREAIAVFMEHSFKDENHEFQKKLVDTIEKKKGDFVLQNEEASAKYCQAELKRLSEHLTESILRGIFSVPGGHNLYLEEKKQVEWDYKLVPRKGVKANEVLQNFLQSQVVVEESILQSDKALTAGEKAIAAERAMKEAAEKEQELLREKQKEQQQMMEAQERSFQEYMAQMEKKLEEERENLLREHERLLKHKLKVQEEMLKEEFQKKSEQLNKEINQLKEKIESTKNEQLRLLKILDMASNIMIVTLPGASKLLGVGTKYLGSRI
How did the binding [1] turn out when B1 was run?
Its binding is “no binding”.

What about the binding [2] of the same binder?
The binding was “no binding”.

— publication PMC9352726 (Nature Communications, 2022)
